Patent US20200199202A1
No constants are given. Whether binding was seen depends on the method and setting. Binding can be weak; no strength is given.

Molecular target: Colobus guereza NPC1 domain C protein (Colobus guereza)
Test: BLI

B1: mAb 548 (anti-human NPC1 domain C monoclonal antibody) (antibody, V domains shown)
VH: EVQLQQSGAELVKPGASVKLSCTASGFNIKDTYMHWVKQRPEEGLEWIGRIDPADGNTEYVPKFQGKATITADTFSNTVYLQLSGLTSEDTAVYYCSRGYYWGQGTTLTVSS
VL: DIQMTQSPASLSASVGETVTITCRASENIYSYLAWYQQKQGKSPQLLVYNAKTLAEGVPSRFSGSGSGTQFSLKINSLQPEDFGIYYCQHHYGSPWAFGGGTKLEIK
binding: binds
